Article PMC6656774, “Functional importance of the oligomer formation of the cyanobacterial H^+ pump Gloeobacter rhodopsin” (Scientific Reports, 2019)
No constants are given. Whether binding was seen depends on the method and setting. Tags and fused reporters may be left off the sequences shown.

How the values were obtained:
[1] = biological target: Gloeobacter rhodopsin (GR), wild type, C-terminal His-tagged (Gloeobacter violaceus) (UniProt Q7NP59); experiment: condition: only in the lower-density nanodisc band NDL; visible circular dichroism (exciton coupling of retinals); GR in the lower-density nanodisc band NDL (MSP1E3D1, POPC); 6-mix buffer, pH 7, 0.3 M NaCl, 25 °C; both purified
[2] = biological target: Gloeobacter rhodopsin (GR), wild type, C-terminal His-tagged (Gloeobacter violaceus) (UniProt Q7NP59); experiment: visible circular dichroism (exciton coupling of retinals); DDM-solubilized GR at pH 4; both purified
[3] = biological target: Gloeobacter rhodopsin (GR), wild type, C-terminal His-tagged (Gloeobacter violaceus) (UniProt Q7NP59); experiment: condition: only in the lower-density nanodisc band NDL; sucrose density gradient centrifugation + absorption spectra (MSP amount per GR from A280); lower-density nanodisc band NDL, reconstituted at pH 5.5, separated on a 10-40% sucrose gradient; spectra in 6-mix buffer, pH 7, 0.3 M NaCl, set to the same peak at about 540 nm; both purified
[4] = biological target: Gloeobacter rhodopsin H87M mutant, C-terminal His-tagged (Gloeobacter violaceus) (UniProt Q7NP59); experiment: sucrose density gradient centrifugation; H87M GR in MSP1E3D1/POPC nanodiscs reconstituted at pH 7 (GR:MSP:POPC 1:2:200); 10-40% sucrose, 40,000 rpm, 16 h, 4 °C; band position compared with NDL; both purified

Binder	binding [1]	binding [2]	binding [3]	binding [4]
Gloeobacter rhodopsin (GR), wild type, C-terminal His-tagged (natural protein, Gloeobacter violaceus, UniProt Q7NP59 1-298, looked up, retinal bound by a protonated Schiff base linkage (residue not given), Gloeobacter rhodopsin, H+ pump from the cyanobacterium Gloeobacter violaceus; The same protein was trapped as a trimer (nanodisc band NDH) and as a monomer (nanodisc band NDL) after reconstitution at pH 5.5; also called wild-type GR; trimeric GR (in NDH); source: E. coli BL21(DE3), solubilized with DDM, purified (Ni-NTA agarose); reconstituted into MSP1E3D1/POPC nanodiscs or kept in DDM) MLMTVFSSAPELALLGSTFAQVDPSNLSVSDSLTYGQFNLVYNAFSFAIAAMFASALFFFSAQALVGQRYRLALLVSAIVVSIAGYHYFRIFNSWDAAYVLENGVYSLTSEKFNDAYRYVDWLLTVPLLLVETVAVLTLPAKEARPLLIKLTVASVLMIATGYPGEISDDITTRIIWGTVSTIPFAYILYVLWVELSRSLVRQPAAVQTLVRNMRWLLLLSWGVYPIAYLLPMLGVSGTSAAVGVQVGYTIADVLAKPVFGLLVFAIALVKTKADQESSEPHAAIGAAANKSGGSLIS	no binding	no binding (condition: DDM-solubilized at pH 4)	no binding	
Gloeobacter rhodopsin H87M mutant, C-terminal His-tagged (protein, UniProt Q7NP59 1-298, retinal bound by a Schiff base linkage (residue not given)) MLMTVFSSAPELALLGSTFAQVDPSNLSVSDSLTYGQFNLVYNAFSFAIAAMFASALFFFSAQALVGQRYRLALLVSAIVVSIAGYMYFRIFNSWDAAYVLENGVYSLTSEKFNDAYRYVDWLLTVPLLLVETVAVLTLPAKEARPLLIKLTVASVLMIATGYPGEISDDITTRIIWGTVSTIPFAYILYVLWVELSRSLVRQPAAVQTLVRNMRWLLLLSWGVYPIAYLLPMLGVSGTSAAVGVQVGYTIADVLAKPVFGLLVFAIALVKTKADQESSEPHAAIGAAANKSGGSLIS				no binding
